The other results are listed elsewhere or left out.
Assays:
Test in all cases: log2 fold change, soluble protein after heating vs DMSO (PISA); higher = thermal stabilisation; K562 lysate, 10 uM; active = over 0.2 and 3.5 SD of the protein, either way, in both replicates (recomputed)
pictilisib = compound: CS(=O)(=O)N1CCN(Cc2cc3nc(-c4cccc5[nH]ncc45)nc(N4CCOCC4)c3s2)CC1 [pictilisib]
Outline: (§1)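 Log-two fold change in thermal stability relative to solvent controls is reported from duplicates. For each sample, crude K562 extract from dounce-homogenised pellets in PBS pH 7.4 with 1 mM MgCl2, at 1 mg/mL protein, was treated with 10 μM compound for 30 min. Aliquots heated for 3 min across 48°C-58°C were pooled, brought to 0.5% NP-40 at 4°C and cleared at 21,000xg for 90 min. The supernatant was quantified by TMTpro 16plex LC-MS/MS with channel sums equalised.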

Sequences of proteins named here, by UniProt entry; tags and fusion partners are left off. A change or cut given only in a name is not applied to a line headed by its entry.
UniProt Q02487, whole entry, looked up: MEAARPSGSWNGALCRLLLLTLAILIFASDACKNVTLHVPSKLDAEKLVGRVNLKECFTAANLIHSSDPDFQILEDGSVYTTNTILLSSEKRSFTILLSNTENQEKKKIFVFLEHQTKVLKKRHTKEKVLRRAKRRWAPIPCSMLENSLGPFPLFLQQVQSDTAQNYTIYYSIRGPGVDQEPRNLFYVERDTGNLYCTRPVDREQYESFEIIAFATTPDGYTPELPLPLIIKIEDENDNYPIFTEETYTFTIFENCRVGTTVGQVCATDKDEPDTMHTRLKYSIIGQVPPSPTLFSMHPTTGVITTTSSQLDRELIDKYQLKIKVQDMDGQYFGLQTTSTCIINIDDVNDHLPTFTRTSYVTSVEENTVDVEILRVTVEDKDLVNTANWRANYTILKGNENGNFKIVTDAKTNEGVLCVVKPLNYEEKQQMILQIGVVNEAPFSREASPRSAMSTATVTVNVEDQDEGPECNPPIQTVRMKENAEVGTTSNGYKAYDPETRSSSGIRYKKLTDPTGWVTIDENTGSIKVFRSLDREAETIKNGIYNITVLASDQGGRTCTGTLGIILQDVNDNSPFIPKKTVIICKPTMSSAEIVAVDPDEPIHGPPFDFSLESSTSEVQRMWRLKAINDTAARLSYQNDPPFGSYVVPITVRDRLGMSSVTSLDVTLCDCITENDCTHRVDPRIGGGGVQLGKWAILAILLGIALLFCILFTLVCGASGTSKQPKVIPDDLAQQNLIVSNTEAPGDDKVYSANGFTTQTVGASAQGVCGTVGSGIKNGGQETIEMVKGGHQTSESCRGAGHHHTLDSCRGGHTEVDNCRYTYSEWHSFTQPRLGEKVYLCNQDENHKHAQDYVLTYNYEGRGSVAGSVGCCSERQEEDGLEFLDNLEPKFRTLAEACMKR
UniProt P51808: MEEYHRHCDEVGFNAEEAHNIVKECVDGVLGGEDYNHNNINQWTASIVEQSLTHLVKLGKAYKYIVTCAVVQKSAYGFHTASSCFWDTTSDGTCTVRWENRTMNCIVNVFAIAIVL
UniProt Q9UII6: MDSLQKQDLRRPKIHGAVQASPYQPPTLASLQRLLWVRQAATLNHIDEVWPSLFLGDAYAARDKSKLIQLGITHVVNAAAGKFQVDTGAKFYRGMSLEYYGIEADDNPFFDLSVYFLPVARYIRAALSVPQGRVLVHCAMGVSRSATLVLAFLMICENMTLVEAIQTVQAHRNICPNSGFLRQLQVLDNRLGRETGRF
UniProt Q96FX2: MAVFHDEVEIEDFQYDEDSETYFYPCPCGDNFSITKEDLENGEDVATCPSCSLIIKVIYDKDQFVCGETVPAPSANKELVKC
UniProt Q8TD84: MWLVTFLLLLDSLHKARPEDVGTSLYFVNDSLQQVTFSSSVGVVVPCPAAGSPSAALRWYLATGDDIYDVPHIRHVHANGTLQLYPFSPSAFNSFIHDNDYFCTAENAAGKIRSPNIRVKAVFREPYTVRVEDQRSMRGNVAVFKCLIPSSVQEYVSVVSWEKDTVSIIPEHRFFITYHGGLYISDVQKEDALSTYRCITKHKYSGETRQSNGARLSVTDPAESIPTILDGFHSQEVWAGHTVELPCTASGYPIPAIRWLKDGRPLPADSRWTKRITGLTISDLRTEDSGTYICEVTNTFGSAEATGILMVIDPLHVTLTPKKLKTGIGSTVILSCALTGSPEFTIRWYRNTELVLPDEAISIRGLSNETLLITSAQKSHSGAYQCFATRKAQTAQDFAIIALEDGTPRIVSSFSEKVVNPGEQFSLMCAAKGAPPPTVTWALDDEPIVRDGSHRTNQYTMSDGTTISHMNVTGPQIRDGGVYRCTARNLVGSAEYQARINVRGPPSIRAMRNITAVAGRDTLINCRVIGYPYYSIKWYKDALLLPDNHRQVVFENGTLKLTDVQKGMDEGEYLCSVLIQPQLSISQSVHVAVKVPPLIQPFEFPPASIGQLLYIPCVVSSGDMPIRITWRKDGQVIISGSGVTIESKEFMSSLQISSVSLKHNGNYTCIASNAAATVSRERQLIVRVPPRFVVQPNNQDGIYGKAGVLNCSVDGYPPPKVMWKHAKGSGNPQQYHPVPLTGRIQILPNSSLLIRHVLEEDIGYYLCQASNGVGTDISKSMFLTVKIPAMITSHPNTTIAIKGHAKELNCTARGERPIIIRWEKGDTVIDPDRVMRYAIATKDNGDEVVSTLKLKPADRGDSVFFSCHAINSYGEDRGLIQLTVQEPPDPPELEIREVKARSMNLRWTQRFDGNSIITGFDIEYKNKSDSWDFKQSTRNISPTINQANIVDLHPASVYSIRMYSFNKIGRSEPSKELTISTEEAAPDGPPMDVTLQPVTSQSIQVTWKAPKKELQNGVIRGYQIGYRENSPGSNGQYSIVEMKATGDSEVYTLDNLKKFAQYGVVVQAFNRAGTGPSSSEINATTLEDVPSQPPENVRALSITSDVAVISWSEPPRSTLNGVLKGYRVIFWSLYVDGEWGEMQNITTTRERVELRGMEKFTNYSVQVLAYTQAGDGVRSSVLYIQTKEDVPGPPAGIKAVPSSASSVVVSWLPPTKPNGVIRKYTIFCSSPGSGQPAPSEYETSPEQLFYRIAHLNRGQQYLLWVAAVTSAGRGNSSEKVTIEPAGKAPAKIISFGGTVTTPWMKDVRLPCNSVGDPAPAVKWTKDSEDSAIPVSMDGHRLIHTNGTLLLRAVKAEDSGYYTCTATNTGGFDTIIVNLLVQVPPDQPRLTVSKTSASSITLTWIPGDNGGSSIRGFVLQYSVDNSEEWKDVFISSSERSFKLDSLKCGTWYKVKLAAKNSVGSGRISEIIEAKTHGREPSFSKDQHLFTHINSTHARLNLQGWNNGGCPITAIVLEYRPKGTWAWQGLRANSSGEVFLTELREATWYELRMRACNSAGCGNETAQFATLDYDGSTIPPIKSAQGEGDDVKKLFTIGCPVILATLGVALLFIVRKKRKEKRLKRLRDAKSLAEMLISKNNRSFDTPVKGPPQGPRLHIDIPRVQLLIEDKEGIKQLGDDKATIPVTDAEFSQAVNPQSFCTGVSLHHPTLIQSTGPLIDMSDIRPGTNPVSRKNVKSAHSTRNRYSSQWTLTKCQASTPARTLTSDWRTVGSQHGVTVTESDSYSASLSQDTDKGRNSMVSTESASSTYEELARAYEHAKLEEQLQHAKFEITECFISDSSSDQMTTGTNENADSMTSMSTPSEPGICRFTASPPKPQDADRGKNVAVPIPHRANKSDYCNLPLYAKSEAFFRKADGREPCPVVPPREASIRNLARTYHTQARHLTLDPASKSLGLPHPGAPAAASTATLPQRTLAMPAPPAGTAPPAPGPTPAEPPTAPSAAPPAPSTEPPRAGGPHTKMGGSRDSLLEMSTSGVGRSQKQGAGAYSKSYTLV
UniProt Q6XUX3: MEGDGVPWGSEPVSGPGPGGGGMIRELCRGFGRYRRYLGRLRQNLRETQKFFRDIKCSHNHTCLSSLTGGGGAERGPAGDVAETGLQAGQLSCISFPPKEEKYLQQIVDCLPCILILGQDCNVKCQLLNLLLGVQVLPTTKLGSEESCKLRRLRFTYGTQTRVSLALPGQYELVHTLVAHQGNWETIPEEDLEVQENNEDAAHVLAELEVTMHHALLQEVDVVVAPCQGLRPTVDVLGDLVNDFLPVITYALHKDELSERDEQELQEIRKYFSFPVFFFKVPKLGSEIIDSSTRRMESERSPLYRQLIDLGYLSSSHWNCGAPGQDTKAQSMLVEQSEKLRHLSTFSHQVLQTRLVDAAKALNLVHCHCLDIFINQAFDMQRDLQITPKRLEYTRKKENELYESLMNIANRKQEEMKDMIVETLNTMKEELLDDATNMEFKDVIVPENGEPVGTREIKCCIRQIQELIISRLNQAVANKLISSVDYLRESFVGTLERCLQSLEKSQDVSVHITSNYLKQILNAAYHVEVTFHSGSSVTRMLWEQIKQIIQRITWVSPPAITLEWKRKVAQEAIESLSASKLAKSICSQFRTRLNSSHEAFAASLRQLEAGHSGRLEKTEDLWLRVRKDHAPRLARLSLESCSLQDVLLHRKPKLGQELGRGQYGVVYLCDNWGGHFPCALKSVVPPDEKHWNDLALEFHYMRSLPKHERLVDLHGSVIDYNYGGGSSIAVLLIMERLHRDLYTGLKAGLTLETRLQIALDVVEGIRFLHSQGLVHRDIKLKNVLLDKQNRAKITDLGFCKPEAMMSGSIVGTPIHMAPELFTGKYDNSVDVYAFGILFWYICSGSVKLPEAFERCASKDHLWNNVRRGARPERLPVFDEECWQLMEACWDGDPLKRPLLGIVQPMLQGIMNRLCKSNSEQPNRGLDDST
UniProt Q14156: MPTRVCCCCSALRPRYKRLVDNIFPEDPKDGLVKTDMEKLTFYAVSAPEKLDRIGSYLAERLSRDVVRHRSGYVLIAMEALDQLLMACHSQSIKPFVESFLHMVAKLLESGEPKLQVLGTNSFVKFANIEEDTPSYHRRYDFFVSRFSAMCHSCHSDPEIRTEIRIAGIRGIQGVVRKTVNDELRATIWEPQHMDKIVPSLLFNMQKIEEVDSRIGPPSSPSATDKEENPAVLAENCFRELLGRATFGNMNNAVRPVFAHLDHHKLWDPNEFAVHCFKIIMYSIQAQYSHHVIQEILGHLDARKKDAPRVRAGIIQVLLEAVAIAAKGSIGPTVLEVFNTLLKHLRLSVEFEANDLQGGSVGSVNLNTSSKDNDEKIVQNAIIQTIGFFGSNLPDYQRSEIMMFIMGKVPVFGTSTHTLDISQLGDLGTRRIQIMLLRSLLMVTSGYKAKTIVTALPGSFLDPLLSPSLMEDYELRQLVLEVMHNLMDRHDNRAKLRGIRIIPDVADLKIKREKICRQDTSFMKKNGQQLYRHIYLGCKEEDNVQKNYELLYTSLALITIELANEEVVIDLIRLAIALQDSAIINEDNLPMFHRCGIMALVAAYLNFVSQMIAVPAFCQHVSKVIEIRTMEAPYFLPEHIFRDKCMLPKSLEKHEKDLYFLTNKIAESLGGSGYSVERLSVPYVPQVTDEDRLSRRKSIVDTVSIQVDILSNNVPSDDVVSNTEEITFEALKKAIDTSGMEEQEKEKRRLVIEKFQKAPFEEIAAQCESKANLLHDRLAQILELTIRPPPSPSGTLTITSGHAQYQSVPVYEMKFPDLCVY
UniProt Q9C005, whole entry, looked up: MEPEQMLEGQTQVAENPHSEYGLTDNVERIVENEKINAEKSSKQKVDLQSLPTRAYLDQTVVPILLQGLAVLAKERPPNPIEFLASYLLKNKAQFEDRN
UniProt Q9P2X0: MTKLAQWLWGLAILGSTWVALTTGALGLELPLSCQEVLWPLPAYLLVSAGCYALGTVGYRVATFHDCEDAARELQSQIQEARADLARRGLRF
UniProt Q7Z388: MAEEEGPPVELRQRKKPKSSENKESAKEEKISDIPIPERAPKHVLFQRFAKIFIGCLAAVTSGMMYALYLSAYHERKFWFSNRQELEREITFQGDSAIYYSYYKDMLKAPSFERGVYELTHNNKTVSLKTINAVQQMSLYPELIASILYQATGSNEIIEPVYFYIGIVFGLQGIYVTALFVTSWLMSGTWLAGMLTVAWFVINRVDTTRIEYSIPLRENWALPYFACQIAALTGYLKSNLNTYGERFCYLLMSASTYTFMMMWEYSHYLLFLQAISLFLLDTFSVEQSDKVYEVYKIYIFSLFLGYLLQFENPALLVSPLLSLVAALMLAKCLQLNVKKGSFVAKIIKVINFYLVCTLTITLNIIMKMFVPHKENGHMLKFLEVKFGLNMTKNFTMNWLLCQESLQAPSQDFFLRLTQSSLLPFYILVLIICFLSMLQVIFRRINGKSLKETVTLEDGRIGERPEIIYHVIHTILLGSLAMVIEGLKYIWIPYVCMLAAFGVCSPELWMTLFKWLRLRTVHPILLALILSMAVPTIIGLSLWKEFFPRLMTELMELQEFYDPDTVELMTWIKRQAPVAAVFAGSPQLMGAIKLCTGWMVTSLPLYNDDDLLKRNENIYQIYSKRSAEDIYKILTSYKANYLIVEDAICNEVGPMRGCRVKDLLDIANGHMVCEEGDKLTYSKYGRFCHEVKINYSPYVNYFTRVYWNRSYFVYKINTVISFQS
UniProt Q14195, whole entry, looked up: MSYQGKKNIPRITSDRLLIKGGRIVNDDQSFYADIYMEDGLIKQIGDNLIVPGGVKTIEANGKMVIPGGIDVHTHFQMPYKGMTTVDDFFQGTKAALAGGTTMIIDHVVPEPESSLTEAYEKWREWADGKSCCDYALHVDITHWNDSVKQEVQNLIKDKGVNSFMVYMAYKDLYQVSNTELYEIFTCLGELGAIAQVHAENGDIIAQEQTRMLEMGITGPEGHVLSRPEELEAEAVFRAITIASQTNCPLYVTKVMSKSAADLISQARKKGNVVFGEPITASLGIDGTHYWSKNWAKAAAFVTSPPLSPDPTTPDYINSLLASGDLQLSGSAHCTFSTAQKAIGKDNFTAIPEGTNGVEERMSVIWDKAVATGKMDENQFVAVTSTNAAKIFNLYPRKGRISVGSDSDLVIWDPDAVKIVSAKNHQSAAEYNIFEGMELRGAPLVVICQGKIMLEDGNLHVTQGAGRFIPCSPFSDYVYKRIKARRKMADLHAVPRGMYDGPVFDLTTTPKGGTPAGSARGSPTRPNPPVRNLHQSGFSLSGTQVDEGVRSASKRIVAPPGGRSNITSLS

crizotinib = compound: C[C@@H](Oc1cc(-c2cnn(C3CCNCC3)c2)cnc1N)c1c(Cl)ccc(F)c1Cl [crizotinib]
Outline: as §1

[1] = compound: C[C@H](C1=CC=C(C=C1)C(=O)NC2=C3C=CNC3=NC=C2)N
Outline: as §1

duvelisib = compound: C[C@H](Nc1ncnc2nc[nH]c12)c1cc2cccc(Cl)c2c(=O)n1-c1ccccc1 [duvelisib]
Outline: as §1

gandotinib = compound: Cc1cc(Nc2cc(CN3CCOCC3)c3nc(C)c(Cc4ccc(Cl)cc4F)n3n2)n[nH]1 [gandotinib]
Outline: as §1

tozasertib = compound: Cc1cc(Nc2cc(N3CCN(C)CC3)nc(Sc3ccc(NC(=O)C4CC4)cc3)n2)n[nH]1 [tozasertib]
Outline: as §1

doramapimod = compound: Cc1ccc(-n2nc(C(C)(C)C)cc2NC(=O)Nc2ccc(OCCN3CCOCC3)c3ccccc23)cc1 [doramapimod]
Outline: as §1

bafetinib = compound: Cc1ccc(NC(=O)c2ccc(CN3CC[C@H](N(C)C)C3)c(C(F)(F)F)c2)cc1Nc1nccc(-c2cncnc2)n1 [bafetinib]
Outline: as §1

[2] = compound: Cc1cccc(CC(=O)N2CCc3c2ccc(-c2cn(C)c4ncnc(N)c24)c3F)n1
Outline: as §1

dasatinib = compound: Cc1nc(Nc2ncc(C(=O)Nc3c(C)cccc3Cl)s2)cc(N2CCN(CCO)CC2)n1 [dasatinib]
Outline: as §1

[3] = compound: Cn1cc(-c2ccc3c(c2)CCN3C(=O)Cc2cccc(C(F)(F)F)c2)c2c(N)ncnc21
Outline: as §1

quisinostat = compound: Cn1cc(CNCC2CCN(c3ncc(C(=O)NO)cn3)CC2)c2ccccc21 [quisinostat]
Outline: as §1

[4] = compound: NC(=O)Nc1cc(-c2cccc(F)c2)sc1C(=O)N[C@H]1CCCNC1
Outline: as §1

[5] = compound: NC1(c2ccc(-c3nc4ccn5c(=O)[nH]nc5c4cc3-c3ccccc3)cc2)CCC1
Outline: as §1

lapatinib = compound: CS(=O)(=O)CCNCc1ccc(-c2ccc3ncnc(Nc4ccc(OCc5cccc(F)c5)c(Cl)c4)c3c2)o1 [lapatinib]
Outline: as §1

[6] = compound: NC(=O)c1cnc(N[C@@H]2CCCC[C@@H]2N)nc1Nc1cccc(-n2nccn2)c1
Outline: as §1

nilotinib = compound: Cc1cn(-c2cc(NC(=O)c3ccc(C)c(Nc4nccc(-c5cccnc5)n4)c3)cc(C(F)(F)F)c2)cn1 [nilotinib]
Outline: as §1

[7] = compound: Cc1nc(Nc2n[nH]c3c2CN(C(=O)N[C@H](CN(C)C)c2ccccc2)C3(C)C)c2sccc2n1
Outline: as §1

[8] = compound: Cc1ncc(-c2ccnc(Nc3ccc(S(C)(=O)=O)cc3)n2)n1C(C)C
Outline: as §1

tipifarnib = compound: Cn1cncc1[C@@](N)(c1ccc(Cl)cc1)c1ccc2c(c1)c(-c1cccc(Cl)c1)cc(=O)n2C [tipifarnib]
Outline: as §1

Row | Target | log2 fold change (pictilisib) | log2 fold change (crizotinib) | log2 fold change [1] | log2 fold change (duvelisib) | log2 fold change (gandotinib) | log2 fold change (tozasertib) | log2 fold change (doramapimod) | log2 fold change (bafetinib) | log2 fold change [2] | log2 fold change (dasatinib) | log2 fold change [3] | log2 fold change (quisinostat) | log2 fold change [4] | log2 fold change [5] | log2 fold change (lapatinib) | log2 fold change [6] | log2 fold change (nilotinib) | log2 fold change [7] | log2 fold change [8] | log2 fold change (tipifarnib)
1 | DSC2 (UniProt Q02487) | inactive: -0.088 | inactive: -0.027 | inactive: -0.033 | inactive: -0.047 | inactive: 0.078 | inactive: 0.188 | inactive: 0.207 | inactive: 0.01 | inactive: 0.068 | inactive: -0.137 | inactive: -0.002 | inactive: 0.069 | inactive: 0.035 | inactive: 0.012 | – | – | – | – | – | –
2 | DUT (UniProt H0YMP1) | inactive: -0.065 | – | – | – | – | – | – | inactive: -0.285 | – | – | – | – | – | – | inactive: -0.008 | inactive: -0.207 | – | – | – | –
3 | DYNLT3 (UniProt P51808) | – | inactive: 0.068 | inactive: -0.032 | – | inactive: 0 | – | inactive: -0.039 | – | inactive: -0.012 | – | – | inactive: -0.024 | inactive: 0.07 | inactive: -0.059 | inactive: -0.238 | inactive: -0.011 | inactive: 0.012 | inactive: 0.05 | inactive: -0.077 | inactive: 0.057
4 | DST isoform 3 (UniProt Q03001) | inactive: 0.049 | – | active: 1.39 | – | inactive: -0.243 | inactive: -0.056 | – | inactive: -0.118 | inactive: -0.224 | – | – | – | – | inactive: -0.071 | – | – | – | – | – | –
5 | EEF1AKMT1 (UniProt Q8WVE0) | inactive: -0.046 | inactive: -0.163 | – | inactive: -0.047 | – | inactive: 0.258 | inactive: 0.028 | inactive: -0.115 | – | inactive: -0.147 | inactive: 0.053 | inactive: -0.031 | inactive: -0.013 | inactive: 0.08 | inactive: -0.055 | inactive: 0.142 | inactive: 0.054 | inactive: -0.005 | inactive: -0.046 | inactive: -0.122
6 | DUSP13 isoform 4 (UniProt Q9UII6) | – | – | – | – | – | – | – | – | – | – | – | – | – | inactive: 0.003 | – | – | – | – | – | –
7 | DRAP1 (UniProt E9PQX9) | inactive: 0.07 | – | inactive: -0.075 | inactive: -0.021 | inactive: 0.067 | inactive: 0.048 | – | inactive: -0.067 | inactive: 0.005 | inactive: -0.275 | inactive: 0.028 | – | – | – | inactive: -0.038 | inactive: 0.032 | – | – | – | –
8 | DPH3 (UniProt Q96FX2) | inactive: -0.013 | inactive: -0.041 | inactive: -0.092 | inactive: 0.029 | inactive: -0.105 | inactive: 0.025 | inactive: -0.024 | inactive: -0.04 | inactive: -0.137 | inactive: -0.131 | inactive: -0.17 | inactive: -0.021 | inactive: -0.003 | – | – | – | – | – | – | –
9 | DSCAML1 (UniProt Q8TD84) | inactive: -0.059 | inactive: -0.049 | inactive: -0.093 | – | inactive: 0.096 | – | inactive: 0.035 | inactive: -0.123 | inactive: 0.013 | – | – | inactive: -0.111 | inactive: 0.067 | – | inactive: -0.085 | inactive: 0.064 | inactive: -0.132 | inactive: -0.05 | inactive: 0.01 | inactive: 0.116
10 | DSTYK (UniProt Q6XUX3) | – | inactive: -0.109 | inactive: 0.087 | – | inactive: -0.105 | – | inactive: 0.013 | – | inactive: 0.011 | – | – | inactive: -0.124 | inactive: -0.007 | inactive: 0.383 | – | – | inactive: -0.015 | inactive: 0.037 | inactive: -0.006 | inactive: -0.081
11 | DYRK1A isoform 2 (UniProt Q13627) | inactive: -0.166 | inactive: -0.071 | inactive: -0.171 | – | inactive: 0.014 | – | inactive: 0.092 | inactive: 0.145 | inactive: 0.034 | – | – | inactive: -0.095 | inactive: 0.139 | inactive: -0.047 | – | – | – | – | – | –
12 | EFR3A (UniProt Q14156) | inactive: -0.171 | – | inactive: -0.062 | inactive: 0.125 | inactive: -0.076 | inactive: 0.073 | – | inactive: -0.106 | inactive: 0.208 | inactive: -0.082 | inactive: 0.015 | – | – | inactive: -0.002 | inactive: -0.038 | inactive: 0.037 | inactive: -0.103 | inactive: -0.016 | inactive: 0.059 | inactive: 0.064
13 | DTWD2 (UniProt Q8NBA8) | inactive: -0.042 | inactive: 0.244 | inactive: -0.026 | – | inactive: 0.019 | – | inactive: -0.08 | inactive: -0.025 | inactive: 0.118 | – | – | inactive: -0.048 | inactive: -0.017 | inactive: -0.019 | inactive: -0.002 | inactive: 0.043 | inactive: -0.016 | inactive: -0.038 | inactive: 0.008 | inactive: -0.025
14 | DPY30 (UniProt Q9C005) | – | inactive: -0.117 | inactive: 0.27 | inactive: 0.052 | inactive: -0.055 | inactive: 0.087 | inactive: -0.005 | – | inactive: -0.097 | inactive: -0.005 | inactive: 0.002 | inactive: -0.156 | inactive: -0.051 | inactive: -0.037 | inactive: -0.012 | inactive: -0.032 | inactive: 0.063 | inactive: -0.021 | inactive: 0.298 | inactive: -0.134
15 | DPM3 isoform 2 (UniProt Q9P2X0) | inactive: 0 | inactive: 0.025 | inactive: 0.169 | – | inactive: -0.053 | – | inactive: -0.013 | inactive: -0.111 | inactive: 0.036 | – | – | inactive: 0.098 | inactive: -0.143 | inactive: 0.041 | inactive: -0.028 | inactive: 0 | inactive: 0.037 | inactive: -0.18 | inactive: 0.121 | inactive: -0.006
16 | DPY19L4 (UniProt Q7Z388) | inactive: -0.202 | inactive: -0.071 | inactive: -0.064 | inactive: 0.185 | inactive: 0.02 | inactive: -0.055 | inactive: 0.004 | inactive: -0.052 | inactive: 0.036 | inactive: 0.162 | inactive: 0.062 | inactive: -0.021 | inactive: -0.023 | inactive: 0.011 | – | – | inactive: -0.117 | inactive: -0.126 | inactive: 0.069 | inactive: -0.021
17 | DPYSL3 isoform 2 (UniProt Q14195) | – | inactive: 0.059 | – | – | – | inactive: 0.015 | inactive: 0 | – | – | – | – | inactive: 0.003 | inactive: 0.141 | – | – | – | – | – | – | –

Some values from the list.
For log2 fold change [5], DUSP13 isoform 4 (UniProt Q9UII6) has inactive: 0.003
For log2 fold change [4], DPYSL3 isoform 2 (UniProt Q14195) has inactive: 0.141
